Here are results for four molecules from patent US20220372155A1.

Test [1] concerns the target T1, human B7H4 protein (human) (UniProt Q7Z7D3).
T1 sequence (looked up): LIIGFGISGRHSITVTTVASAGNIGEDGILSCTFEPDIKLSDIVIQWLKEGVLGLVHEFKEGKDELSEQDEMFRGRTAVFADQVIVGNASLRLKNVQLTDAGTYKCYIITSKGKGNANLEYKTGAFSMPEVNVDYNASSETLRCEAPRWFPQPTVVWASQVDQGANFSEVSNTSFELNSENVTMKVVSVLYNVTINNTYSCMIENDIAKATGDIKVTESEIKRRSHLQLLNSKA
Put plainly: assay not described.

Test [2] deals with T2, human B7H3 expressed on CHO cells (human) (UniProt Q5ZPR3).
T2 sequence (looked up): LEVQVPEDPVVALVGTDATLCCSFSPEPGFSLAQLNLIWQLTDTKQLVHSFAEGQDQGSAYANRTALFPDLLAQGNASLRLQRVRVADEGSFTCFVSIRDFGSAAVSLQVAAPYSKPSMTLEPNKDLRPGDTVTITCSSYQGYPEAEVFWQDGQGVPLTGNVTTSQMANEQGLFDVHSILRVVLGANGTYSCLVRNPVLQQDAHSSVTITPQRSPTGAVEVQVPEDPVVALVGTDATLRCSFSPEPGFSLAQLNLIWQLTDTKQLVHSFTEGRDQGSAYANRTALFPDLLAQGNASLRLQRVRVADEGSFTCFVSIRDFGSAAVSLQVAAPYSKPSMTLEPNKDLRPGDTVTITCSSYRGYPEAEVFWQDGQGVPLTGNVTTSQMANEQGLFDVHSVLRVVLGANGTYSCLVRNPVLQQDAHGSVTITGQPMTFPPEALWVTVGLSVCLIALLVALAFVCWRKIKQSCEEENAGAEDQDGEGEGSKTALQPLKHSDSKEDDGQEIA
Put plainly: FACS, CHO cells.

Test [3] deals with T3, B7H3 (human) (UniProt Q5ZPR3).
T3 sequence (looked up): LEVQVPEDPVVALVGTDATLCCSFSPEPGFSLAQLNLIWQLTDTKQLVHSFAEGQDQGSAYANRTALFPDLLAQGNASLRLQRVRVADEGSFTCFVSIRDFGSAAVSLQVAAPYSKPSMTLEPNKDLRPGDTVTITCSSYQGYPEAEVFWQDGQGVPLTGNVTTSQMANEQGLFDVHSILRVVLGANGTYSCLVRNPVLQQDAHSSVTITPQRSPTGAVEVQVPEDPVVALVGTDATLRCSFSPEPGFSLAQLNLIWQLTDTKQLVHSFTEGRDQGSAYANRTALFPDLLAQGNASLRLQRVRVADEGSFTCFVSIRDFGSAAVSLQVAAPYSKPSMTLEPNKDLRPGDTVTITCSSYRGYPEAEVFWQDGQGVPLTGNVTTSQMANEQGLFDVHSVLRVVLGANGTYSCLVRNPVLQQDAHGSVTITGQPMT
Nature of the test: assay not described.

These are yes or no findings as the source states them, for the method shown. Some binding calls cover weakened binding; strength is not graded here.

B1: Ly361 (chimeric) (antibody, human IgG1, kappa, V domains shown)
VH: EVQLVESGGDLVKPGGSLKLSCAASGFTFSSYGMSWVRQTPDKRLEWVAAISTGGSYTYYPDSVKGRFTISRDTATNTLYLQMSTLKSEDTAMYYCTRRGATGSWFAYWGQGTLVTVSA
VL: DILMTQSPSSMSVSLGDTVSITCHASQGINNNIGWLQRKPGKSFKGLIYHGTNLEDGVPSRFSGSGSGADYSLTISSLESEDFADYYCVQYVQFPRTFGGGTKLEIKR
B1: the binding entry in test [1] is given as “binds”.

B2: Ly383 (antibody, human IgG1, kappa, V domains shown)
VH: EVQLQQSGPELVKPGASVKMSCKASGYTFTSYVMHWVKQKPGQGLEWIGYINPYNDGTECTDKFKGKATLTSDKSSSTAYMELSSLTSEDSAVYYCASIYYGYDGTYFGVWGAGTSVTVSS
VL: QIVLSQSPAILSTSPGEKVTMTCRASSSVSYMHWYQQKPGSSPKPWIYATSNLASGVPARFSGSRSGTSYSLTISRVEAEDAATYYCQQWSSNTLTFGGGTKLELKR
For B2, the binding entry in test [2] and in test [3] was “binds” in each case.

B3: Ly366 (chimeric) (antibody, human IgG1, kappa, V domains shown)
VH: EVQLVESGGGLVKPGGSLKLSCAASGFTFSDSGMHWVRQAPEKGLEWITYINSGSSTIYYADSVKGRFTISRDNAKNTLFLQMTSLRSEDTAMYYCARGRGYAMDYWGQGTSVTVSS
VL: EIVLTQSPTTMAASPGEKITIFCSASSSISSDFLHWYQQKPGFSPKLLIYRISNLASGVPARFSGSGSGTSYSLTIGTMEAEDVATYYCQQGSNVPRTFGGGTKLEIKR
For the molecule B3, the binding entry in test [1] is listed as “binds”.

B4: Ly387 (antibody, human IgG1, kappa, V domains shown)
VH: QVQLQQPGAELVKPGASVKLSCKASGYTFTSYWMHWVKQRPGQGLEWIGMIHPNSGGTNYNEKFKGKGTLTVDKSSSTAYMQLSSLTSDDSAVYYCVTSQATWFAYWGQGTLVTVSA
VL: ENVLTQSPAIMSVSPGEKVTMTCRASSSVSSSYLHWYQQKSGASPKFWIYSTSNLASGVPARFSGSGSGTSYSLTISSVEAEDAATYYCQHYSGYPLTFGAGTKLELRR
Take B4: the binding result in test [2] and in test [3] was “binds” in each case.
